Article doi:10.1101/346619
These are yes or no findings as the source states them, for the method shown. For some of these results: Binding can be weak; no strength is given.

Columns and labels:
Experiment in all cases: two-hybrid
[1] = molecular target: ligand binding domain (LBD; EF domains) of TR2, two-hybrid bait
[2] = molecular target: N-terminal domain (A/B) of TR4, two-hybrid bait
[3] = molecular target: N-terminal domain (A/B) of TR2, two-hybrid bait
[4] = molecular target: ligand binding domain (LBD; EF domains) of TR4, two-hybrid bait

B1: NCoR1 carboxy-terminal (C) domain (NCoR1-C) (domain or fragment, UniProt Q60974 1630-2453)
chain: QVNLRPDVTRGLSPREQPLGLPYPATRGIIDLTNMPPTILVPHAGGTSTPPMDRITYIPGTQVTFPPRPYNAASLSPGHPTHLAAAASAEREREREREKERERERERERERERERIAAAPADLYLRPGSEQPGRPGSHGYVRSPSPSVRTQETILQQRPSVFQGTNGTSVITPLDPTAQLRIMPLPSGGPSISQGLPASRYNTAADALAALVDAAASAPQMDVSKTKESKHEAARLEENLRSRSAAVSEQQQLEQKNLEVEKRSVQCVCTSSALPSGKAQPHASVVYSEAGKDKGPPPKSRYEEELRTRGKTTITAANFIDVIITRQIASDKDARERGSQSSDSSSSLSSHRYETASDAIEVISPASSPAPPQEKPQAYQPDMVKANQAENESTRQYEGPLHHYRSQQESPSPQQQPPLPPSSQSEGMGQVPRTHRLITLADHICQIITQDFARNQVPSQASTSTFQTSPSALSSTPVRTKTSSRYSPESQSQTVLHPRPGPRVSPENLVDKSRGSRPGKSPERSHIPSEPYEPISPPQGPAVHEKQDSMLLLSQRGVDPAEQRSDSRSPGSISYLPSFFTKLESTSPMVKSKKQEIFRKLNSSGGGDSDMAAAQPGTEIFNLPAVTTSGAVSSRSHSFADPASNLGLEDIIRKALMGSFDDKVEDHGVVMSHPVGIMPGSASTSVVTSSEARRDEGEPSPHAGVCKPKLINKSNSRKSKSPIPGQSYLGTERPSSVSSVHSEGDYHRQTPGWAWEDRPSSTGSTQFPYNPLTIRMLSSTPPTQIACAPSAITQAAPHQQNRIWEREPAPLLSAQYETLSDSDD
binding [1]: binds | binding [2]: binds | binding [3]: no binding | binding [4]: binds
